In patent publication US6166076A, “Taste enhancing food additives” (Board of Supervisors of Louisiana State University and …, priority 1997, dated 2000):
For at least one compound, name, drawing or mass did not settle the structure.

Test system: delayed rectifier K^+ channel
Assay: whole-cell patch clamp, delayed rectifier K^+ channel (steady-state outward K^+ current at +40 mV) in rat fungiform taste receptor cells
Type: cell-based, rat (Sprague-Dawley)
Settings: for effect on outward K^+ currents, specificity test: 10 μM, >10 min (maximal effect), significance by paired t test; for stimulation of taste receptor cells: summary statement
Description: The effects of free fatty acids ("FFAs") on taste buds isolated from rat fungiform papillae were examined to determine if a chemosensory (i.e. non-textural) cue for fats is located in the mouth. The methods used to isolate TRCs were generally as described in Behe et al., "Membrane Currents in Taste Cells of the Rat Fungiform Papilla: Evidence for Two Types of Ca Currents and Inhibition of K Currents by Saccharin," Journal of General Physiology, Vol. 96, pp. 1061-1084 (1990); Doolin et al., "Distribution and Characterization of Functional Amiloride-sensitive Sodium Channels in Rat Tongue," Journal of General Physiology, Vol. 107. pp. 545-554 (1996); and Gilbertson et al., "Proton Currents Through Amiloride-sensitive Na^+ Channels in Isolated Hamster Taste Cells: Enhancement by Vasopressin and cAMP," Neuron, Vol. 10, pp. 931-942 (1993).
Individual fungiform taste buds were isolated from the tongues of 2- to 5-month-old male Sprague-Dawley rats (Harlan Sprague Dawley, Indianapolis,Ind.). Animals were housed individually in polycarbonate cages with food (Purina #5001, Purina Mills, St. Louis, Mo.) provided ad lib. The room containing the rats was maintained at 21-23° C. on a 0700-1900 h light-dark cycle. All animal care and experimental procedures were in accordance with National Institutes of Health guidelines, and were approved by the Institutional Animal Care and Use Committee of the Pennington Biomedical Research Center.
Tongues were removed from euthanized rats, and were immediately placed in ice-cold Tyrode's solution. To remove the lingual epithelium containing the taste buds from the underlying muscle layer, approximately 1.0 ml of Tyrode's solution containing 0.3 mg/ml collagenase A (Boehringer Mannheim Corp., Indianapolis, Ind.), 2.5 mg/ml dispase (grade II; Boehringer Mannheim) and 1.0 mg/ml trypsin inhibitor (type I-S; Sigma Chemical Co., St. Louis, Mo.) was injected below the epithelium. The injected tongue was placed in Ca--Mg free Tyrode's solution and bubbled with O2 for 33-35 min. The lingual epithelium was removed and pinned serosal side up, allowing access to the taste buds. Fungiform taste buds were removed individually by gentle suction with a large, firepolished pipette (~200 μm diameter), and were plated onto Cell-Tak™-coated microscope slides (Collaborative Biomedical Prod., Bedford, Mass.) fitted with an O-ring which served as a recording chamber. Once plated, cells were perfused continually with Tyrode's or various test solutions. Taste buds isolated in this manner were used for up to 6 hours without any noticeable morphological or physiological decrement.
All chemicals were obtained from Sigma Chemical Corporation (St. Louis, Mo.) unless otherwise indicated. […]

CC/C=C\C/C=C\C/C=C\C/C=C\C/C=C\C/C=C\CCC(=O)O [docosahexaenoic acid]
effect on outward K^+ currents, specificity test: significantly reduced outward K^+ currents | stimulation of taste receptor cells: stimulate taste receptor cells

CC/C=C\C/C=C\C/C=C\C/C=C\C/C=C\CCCC(=O)O [eicosapentaenoic acid]
effect on outward K^+ currents, specificity test: significantly reduced outward K^+ currents | stimulation of taste receptor cells: stimulate taste receptor cells
